One substance from publication PMC5808446 can be followed below.

Amino acid sequences for entries named in this document (tags omitted). A change or cut given only in a name is not applied to a line headed by its entry. Residues count along the entry.
UniProt P03372: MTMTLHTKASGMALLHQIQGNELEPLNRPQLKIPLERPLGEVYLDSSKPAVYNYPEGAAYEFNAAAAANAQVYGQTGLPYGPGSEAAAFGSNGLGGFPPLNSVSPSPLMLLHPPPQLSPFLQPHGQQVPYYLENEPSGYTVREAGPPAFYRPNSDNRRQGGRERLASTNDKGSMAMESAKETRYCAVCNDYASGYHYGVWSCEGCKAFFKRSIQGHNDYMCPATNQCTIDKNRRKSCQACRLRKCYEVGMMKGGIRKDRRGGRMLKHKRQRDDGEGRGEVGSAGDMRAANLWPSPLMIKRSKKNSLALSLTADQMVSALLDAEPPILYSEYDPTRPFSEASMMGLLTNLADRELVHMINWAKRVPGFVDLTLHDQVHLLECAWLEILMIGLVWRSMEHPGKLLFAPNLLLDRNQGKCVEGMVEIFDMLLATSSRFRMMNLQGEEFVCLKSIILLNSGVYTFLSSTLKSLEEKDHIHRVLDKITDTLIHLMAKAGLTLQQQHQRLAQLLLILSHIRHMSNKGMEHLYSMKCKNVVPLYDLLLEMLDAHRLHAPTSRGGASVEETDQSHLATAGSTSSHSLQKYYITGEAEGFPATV
His-ERα fragment aa 1–300: residues 1-300 of P03372
His-ERα fragment aa 294–595: residues 294-595 of P03372
UniProt Q9HCE7: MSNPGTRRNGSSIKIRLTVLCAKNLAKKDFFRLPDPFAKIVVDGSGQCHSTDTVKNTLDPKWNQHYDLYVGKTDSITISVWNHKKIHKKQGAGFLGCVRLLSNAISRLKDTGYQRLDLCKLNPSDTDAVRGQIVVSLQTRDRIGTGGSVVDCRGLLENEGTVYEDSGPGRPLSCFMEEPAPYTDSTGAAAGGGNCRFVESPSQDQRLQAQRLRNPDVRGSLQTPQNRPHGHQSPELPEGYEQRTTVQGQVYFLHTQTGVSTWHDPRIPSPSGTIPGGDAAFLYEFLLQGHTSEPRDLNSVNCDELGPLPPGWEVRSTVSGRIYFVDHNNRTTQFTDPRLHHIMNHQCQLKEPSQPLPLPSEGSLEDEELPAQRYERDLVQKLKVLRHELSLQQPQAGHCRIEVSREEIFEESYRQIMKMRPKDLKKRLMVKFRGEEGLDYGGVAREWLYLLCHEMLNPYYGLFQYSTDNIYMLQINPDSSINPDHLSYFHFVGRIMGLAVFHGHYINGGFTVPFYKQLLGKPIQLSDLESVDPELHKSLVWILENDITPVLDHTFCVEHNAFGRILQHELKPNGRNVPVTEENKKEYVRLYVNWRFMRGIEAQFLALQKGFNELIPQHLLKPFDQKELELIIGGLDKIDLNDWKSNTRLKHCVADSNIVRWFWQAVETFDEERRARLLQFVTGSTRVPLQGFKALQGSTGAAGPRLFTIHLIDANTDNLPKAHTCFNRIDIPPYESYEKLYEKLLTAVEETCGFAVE

Assay [1] deals with His-ERα fragment aa 294–595 (UniProt P03372). Kind of assay: pull-down; E. coli-expressed His-ERα fragments (Ni-NTA resin) and GST-SMURF1 (purified on glutathione-Sepharose); mixture 4 °C, 30 min with rotation; washed with PBS 30 mM imidazole and PBS 0.01% Triton X-100; eluted with 250 mM imidazole; SDS-PAGE; both purified.
Assay [2] concerns the target His-ERα fragment aa 1–300 (UniProt P03372). The assay is described as above.

No constants are given. Whether binding was seen depends on the method and setting.

Consider “GST-fusion SMURF1 (from UniProt Q9HCE7 1-757) (enzyme)”, for which the binding result in assay [1] and in assay [2] was “no binding” throughout.
